{"sequences": {"note": "By UniProt entry, the sequences of proteins in these tests, tags left out. Where a name states a change or a piece, a line headed by the entry shows the natural chain unless it says otherwise.", "UniProt A0QR99": "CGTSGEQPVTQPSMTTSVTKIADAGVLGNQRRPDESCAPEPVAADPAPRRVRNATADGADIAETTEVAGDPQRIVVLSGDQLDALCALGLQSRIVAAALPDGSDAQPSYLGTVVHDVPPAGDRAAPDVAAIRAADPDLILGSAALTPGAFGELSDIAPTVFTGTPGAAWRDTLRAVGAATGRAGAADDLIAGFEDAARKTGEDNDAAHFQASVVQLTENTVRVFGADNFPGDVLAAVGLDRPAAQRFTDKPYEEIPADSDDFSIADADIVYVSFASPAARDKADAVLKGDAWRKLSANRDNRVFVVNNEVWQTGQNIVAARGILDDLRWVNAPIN", "UniProt A0QQ65": "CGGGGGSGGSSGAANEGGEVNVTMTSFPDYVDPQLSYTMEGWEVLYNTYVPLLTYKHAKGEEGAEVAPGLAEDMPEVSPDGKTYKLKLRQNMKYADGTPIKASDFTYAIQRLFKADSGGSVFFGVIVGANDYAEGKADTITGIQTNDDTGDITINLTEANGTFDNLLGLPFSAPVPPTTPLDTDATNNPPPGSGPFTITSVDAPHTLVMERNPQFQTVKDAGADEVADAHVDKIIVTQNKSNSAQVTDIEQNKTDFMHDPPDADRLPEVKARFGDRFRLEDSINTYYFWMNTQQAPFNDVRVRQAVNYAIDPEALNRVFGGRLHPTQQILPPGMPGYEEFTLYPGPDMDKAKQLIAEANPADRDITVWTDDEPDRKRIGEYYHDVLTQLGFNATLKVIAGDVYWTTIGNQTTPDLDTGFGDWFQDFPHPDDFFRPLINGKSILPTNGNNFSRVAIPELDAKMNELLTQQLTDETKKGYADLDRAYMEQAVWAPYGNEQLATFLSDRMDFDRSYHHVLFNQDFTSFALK"}, "source": "paper PMC10553834", "about": "“Differentiating the roles of Mycobacterium tuberculosis substrate binding proteins, FecB and FecB2, in iron uptake” (PLOS Pathogens, 2023)", "note": "These are yes or no findings as the source states them, for the method shown. Binding seen in cells or lysates may run through a third protein. A yes stands for co-enrichment or nearness to the bait. Other partners may have been found.", "data": [{"biological_target": "Msm FecB2-FLAG (MSMEG_0438, closest M. smegmatis homolog of Mtb FecB2 Rv0265c) (M. smegmatis) (UniProt A0QPL3)", "assay": "affinity purification with mass spectrometry; M. smegmatis lysate (50 mM Tris-HCl pH 7.4, 350 mM NaCl, 10% glycerol, 1% n-dodecyl-β-D-maltoside) of cells expressing the FLAG-tagged bait; ANTI-FLAG M2 affinity gel overnight at 4°C; LC-MS/MS; hits not seen in the FLAG-only control; FecB-, MmpS4- and MmpS5-FLAG cells grown iron-depleted then with 20 μM ferric ammonium citrate, FecB2-FLAG cells under normal iron conditions", "values": [{"substance": "Msm OppD-1 (MSMEG_0640), endogenous (from UniProt A0QQ62)", "binding": "binds"}, {"substance": "Msm-FecB (MSMEG_1039/2319), endogenous (from UniProt A0QR99)", "binding": "binds"}, {"substance": "Msm OppA (MSMEG_0643), endogenous (from UniProt A0QQ65)", "binding": "binds"}, {"substance": "Msm OppD-2 (MSMEG_0639), endogenous (from UniProt A0QQ61)", "binding": "binds"}]}]}
